Test results reported in PubChem BioAssay AID651660 (Broad Institute, 2012).
Values joined by “and” are separate entries in the source; they are usually repeats but may differ in a detail not shown here. Identical values can stand only once. The campaign covered roughly 1,900 compounds. About 15 (0.8%) were called active.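 How the source made its calls: active means every replicate shows at least 50% inhibition; inconclusive means mean inhibition at least 50% but some replicate below; inactive means the rest.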 The list shows a part of the results.

Chains of the proteins cited; added tags and fusions are not shown. Lines headed by an entry give the natural chain unless they say otherwise; changes in a name come on top.
UniProt P43351: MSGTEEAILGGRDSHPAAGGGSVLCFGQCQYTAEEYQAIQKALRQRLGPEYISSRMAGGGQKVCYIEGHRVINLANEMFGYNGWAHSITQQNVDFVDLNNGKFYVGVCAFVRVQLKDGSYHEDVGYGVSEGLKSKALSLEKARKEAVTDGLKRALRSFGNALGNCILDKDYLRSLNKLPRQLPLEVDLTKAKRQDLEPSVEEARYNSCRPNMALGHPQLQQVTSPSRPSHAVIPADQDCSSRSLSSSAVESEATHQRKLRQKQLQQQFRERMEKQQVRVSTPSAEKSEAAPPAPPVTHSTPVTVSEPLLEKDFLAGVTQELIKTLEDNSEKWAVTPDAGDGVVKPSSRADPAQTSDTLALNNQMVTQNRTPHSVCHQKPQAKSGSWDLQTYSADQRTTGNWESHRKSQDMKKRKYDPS

molecular target: DNA repair protein RAD52 homolog (Homo sapiens) (UniProt P43351); experiment: inhibition of RAD52-mediated strand annealing – biochemical, FRET, single point, primary screen (AID 651660); conditions: Recombinant RAD52 ssDNA annealing, FRET fluorescence, 30 min; at 18.7 µM; hits give high values;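 further: 0% = median of neutral control wells and 100% = median of positive control wells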

inhibition, inactive:
CCc1c(C(C)=O)oc2ccc3c(C)cc(=O)oc3c12 -11.7%
COc1ccc(CCN2C(=O)CSC2c2ccc(OC)c(OC)c2)cc1OC (centres undefined) -11.8%
Cc1ccc(OCc2nc(-c3cccnc3)no2)cc1C -13%
c1ccc2c3c(c(CN4CCCCC4)cc2c1)COC3 -5.26%
Cc1ccc(CSCC(=O)N2CCCC2)cc1 3.83%
O=C(OCC1OC2OC3(CCCCC3)OC2C2OC3(CCCCC3)OC12)c1ccccc1 (centres undefined) -6.56%
Cc1ccc(C2CC(=O)C(C=NCCN3CCN(C(=S)Nc4ccccc4)CC3)=C(O)C2)cc1 (centres undefined) 4.06%
CCC(C(=O)Nc1ccc2c(c1)OCCO2)c1ccccc1 (centres undefined) -13.7%
O=C(CSCc1ccccc1)NCCCN1CCOCC1 7.56%
COc1ccc(C2C(C#N)=C(N)Oc3cc(C)[nH]c(=O)c32)c(OC)c1OC (centres undefined) -13.8%
CCC1(c2ccccc2)C(=O)NCNC1=O -11.8%
Cc1oc2ccc(OC(=O)c3cccs3)cc2c1C(=O)OC(C)C -2.63%
C[C@]12CCC(=O)C=C1CC[C@@H]1[C@@H]2CC[C@@]2(C)[C@H]1CC[C@]2(O)C(=O)CO -1.89%
COc1ccc(C2NCCC3(O)CCCCC23)c(OC)c1OC (centres undefined) 1.11%
CCOc1ccc(NC(=O)N[C@@H](CCSC)C(=O)OC)cc1 -5.38%
CN(C)CCC(c1ccc(Br)cc1)c1ccccn1 (centres undefined) 5.86%
CC(=O)NC1C(OCc2ccccc2)OC(COC(C)=O)C(OC(C)=O)C1OC(C)=O (centres undefined) -4.09%
c1ccc(-c2ccc(C(c3ccccc3)n3ccnc3)cc2)cc1 (centres undefined) 31.4%
CC1=NS(=O)(=O)c2cc(Cl)ccc2N1 -3.16%
CC(C)NCC(O)COc1ccc(CC(N)=O)cc1 (centres undefined) 5.13%
CCOC(=O)[C@H]1O[C@@H]1C(=O)N[C@@H](CC(C)C)C(=O)NCCC(C)C -8.22%
CC[C@H](CO)NCCN[C@H](CC)CO -5.2%
Cc1ccccc1NC(=O)C1(C)Cc2ccccc2C(=O)O1 (centres undefined) 4.64%
Cc1cc(-c2nn(-c3ccccc3F)cc2CN2CCC(O)CC2)c(C)s1 10.9%
O=C(O)C1CCN(C(=O)COc2ccc3c4c(c(=O)oc3c2)CCC4)CC1 -9.23%
OC(COCc1ccccc1)CN1CCN(Cc2ccc3c(c2)OCO3)CC1 (centres undefined) -1.57%
O=C(NCC1CCCO1)c1ccc(OC2CCN(C(=O)C3CC3)CC2)cc1 (centres undefined) -15.9%
CC1(C)CC(C(CC(=O)N2CCCC2)Cc2ccccc2)CCO1 (centres undefined) -12.3%
N=c1ccn(CC(=O)NC(N)=O)c2ccccc12 3.93%
COc1ccc(C(CC(=O)N2CCOCC2)C(C)C)cc1 (centres undefined) 4.92%
OC(CCN1CCCCC1)(c1ccccc1)c1ccccc1 -3.42%
CCOc1ccc2[nH]c3c(=O)n(CCc4ccc(OC)cc4)cnc3c2c1 -2.65%
COc1c2occc2c(OC)c2c(=O)cc(C(F)(F)C(F)(F)F)oc12 -8.16%
COc1ccc2[nH]cc(C3N4CC5(C)CN3CC(C)(C4)C5=O)c2c1 (centres undefined) -5.64%
Cc1ccccc1C(=O)NNc1ncnc2c1cnn2C -8.12%
CC(=O)N(CCC1(C(C)C)CCOC(C)(C)C1)Cc1ccco1 (centres undefined) -19%
CC(=O)N=c1sc(S(N)(=O)=O)nn1C -1.8%
CC(C)NNC(=O)c1ccncc1 4.97%
Cc1cc(C)c(NC(=O)NC(=O)C(Cl)(Cl)Cl)c(C)c1 -7.37%
O=C1c2cccc3cccc(c23)C(=O)N1c1ccccn1 -4.1%
O=C(O)CCC(=O)c1ccc(-c2ccccc2)cc1 -4.45%
CN1CCN2c3ccccc3Cc3ccccc3C2C1 (centres undefined) -1.92%
COc1ccc(/C=C/C(=O)c2cc3cccc(OC)c3oc2=O)cc1 -32.1%
CCN(CC)Cc1c[nH]c2c(C(=O)OC)cccc12 1.41%
O=C(O)c1cnccn1 -7.16%
Cc1ncoc1C(=O)N1CCCC(C(=O)c2ccc(-c3ccccc3)c(F)c2)C1 (centres undefined) -9.52%
COc1ccc(-c2[nH]ncc2CN(C)C(C)c2ccon2)c(OC)c1 (centres undefined) -5.02%
C=CCc1ccc(OCC(O)COc2ccc(CC=C)cc2OC)c(OC)c1 4.32%
CCSC(=O)CCCCCCCCCCCO 9.6%
CCOC(=O)C1=C(C)NC(C)=C(C(=O)OC)C1c1cccc(Cl)c1Cl (centres undefined) 14.9%
Cc1ccc2[nH]c3c(c2c1)CCNC3=O -16.6%
CCOc1ccc(C(=O)NC(C)C2COc3ccccc3O2)cc1 (centres undefined) 0.651%
C[C@H](CCC(=O)O)[C@H]1CC[C@H]2[C@@H]3C(=O)C[C@@H]4CC(=O)CC[C@]4(C)[C@H]3CC(=O)[C@]12C -6.67%
Cc1nc2sccn2c(=O)c1CCN1CCC(=C(c2ccc(F)cc2)c2ccc(F)cc2)CC1 47.2%
CC1(C)CC(=O)C2=C(C1)c1c(ccc3ccccc13)NC2c1ccco1 (centres undefined) -27.1%
O=C(O)CCCCCN=C1CCc2ccccc2N1 -14.8%
Cc1nc2ccccc2n1CC(O)Cn1c2ccccc2c2ccccc21 (centres undefined) 3.8%
CCC1(c2ccccc2)NC(=S)N(c2ccc(C)c(C)c2)N1 (centres undefined) -0.264%
COC(=O)C1=NN(C(=O)c2cccc(Br)c2)C(O)(c2ccc(Cl)cc2)C1 (centres undefined) -50.8%
Cc1ccc2c(CN3CCN(Cc4ccc5c(c4)OCO5)CC3)cc(=O)oc2c1C -4.35%
CC(=O)OCC1OC(n2ccc(=O)[nH]c2=O)C(O)C1O (centres undefined) -5.18%
CC(NCCc1ccc(O)cc1)C(O)c1ccc(O)cc1 (centres undefined) -8.85%
COc1cccc(CC(=O)NCC2COc3ccccc3O2)c1OC (centres undefined) 3.16%
Cc1ccc(/C=N/NC(=O)C2(C)CC2(Br)Br)cc1 (centres undefined) 7.95%
O=[N+]([O-])c1ccc(O)c2ncccc12 -28.6%
COc1ccc(C2OC[C@H]3O[C@H](O)[C@H](NC(C)=O)[C@@H](O)[C@@H]3O2)cc1 (some centres undefined) -10.9%
CC(=O)Oc1ccc(C(c2ccc(OC(C)=O)cc2)c2ccccn2)cc1 12.8%
N=c1nc(N2CCCCC2)cc(N)n1O 8.37%
Nc1ccc(C(=O)O)c(O)c1 -7.23% and -328%
Cc1ccc2c(c1)c(C)cc(=O)n2CCC(=O)O 7.6%
CC(C)(C)NCC(O)COc1ccccc1C(=O)CCc1ccccc1 (centres undefined) 9.53%
O=C(O)c1ccccc1Nc1cccc(C(F)(F)F)c1 -6.2%
O=C(NCCc1nc2ccccc2[nH]1)c1cccc(Br)c1 6.58%
CN(C)CCOC(=O)C(c1ccccc1)C1(O)CCCC1 (centres undefined) -4%
C[C@]12CCC3C(CC=C4C[C@@H](O)CC[C@@]43C)C1CCC2[C@]1(C)CCC(=O)O1 (some centres undefined) -4.24%
CCOC(=O)c1oc2cc(OCC(N)=O)ccc2c(=O)c1-c1ccc(OC)c(OC)c1 2.08%
Nc1[nH]c(=O)ncc1F -5.6%
CC(C)(C)OC(=O)N1CC(O)CC1C(=O)OCC(=O)c1ccc(Cl)cc1 (centres undefined) -8.17%
COc1ccc(/C=C\C(=O)c2c(O)ccc3c(C)cc(=O)oc23)cc1OC -9.57%
S=C(NCCOCCOCCNC(=S)Nc1ccccc1)Nc1ccccc1 4.23%
NS(=O)(=O)c1cc2c(cc1Cl)NC(C1C[C@H]3C=C[C@@H]1C3)NS2(=O)=O (some centres undefined) 4.78%
CCCCOc1ccc(C(=O)CCN2CCCCC2)cc1 -1.53%
C[C@H](NC(=O)C1(c2ccccc2)CCN(C(=O)[C@H]2CSCN2C(=O)OC(C)(C)C)CC1)C(=O)O -1.7%
COc1cc(CO)ccc1OCc1nnnn1-c1ccc(C)cc1 5.41%
COCCNC(=O)CSc1ccc(Cl)cc1 -17.2%
OC(CCN1CCCC1)(c1ccccc1)C1CCCCC1 (centres undefined) 4.58%
CC(C)(C)c1ccc(/C=C/C(=O)N2CCCCC2)cc1 -9.82%
NCCc1ccc(O)c(O)c1 6.41%
Cc1nonc1CN(C)C(=O)c1ccc(OC2CCN(C(=O)c3cccnc3)CC2)cc1 -15.6%
CC1=CC2(O)OCCN(CCO)C2=CC1=O (centres undefined) -2.13%
CC(=O)c1cn(C)c(=O)[nH]c1=O -3.65%
COc1cccc(N2CC34C=CC(O3)C(C(=O)O)C4C2=O)c1 (centres undefined) -4.05%
C[C@H](CS)C(=O)N1CCC[C@H]1C(=O)O -0.453%
COc1ccc(/C=C(/C#N)c2cccnc2)cc1OC -8.25%
COC(=O)c1ccc(NC(=O)c2ccccc2SC)cc1 -9.21%
CC(=O)OCC(=O)[C@@]1(O)CC[C@H]2[C@@H]3CCC4=CC(=O)C=C[C@]4(C)[C@H]3[C@@H](O)C[C@@]21C -1.72%
CC(=O)C1=C(O)C(=O)OC1c1ccc(C)cc1 (centres undefined) -9.67%
C[C@]12CC[C@@H]3c4ccc(O)cc4C(=O)C[C@H]3[C@@H]1CC[C@@H]2O 4.17%
COc1ccc(OC)c(C(=O)c2coc3ccc(O)cc23)c1 -0.349%
